The supplement of paper PMC10849652
Some of the results follow.

Protein sequences, listed by entry. Tags and fused reporters are not part of them. Lines headed by an entry give the natural chain unless they say otherwise; changes in a name come on top.
UniProt Q9H1Y0: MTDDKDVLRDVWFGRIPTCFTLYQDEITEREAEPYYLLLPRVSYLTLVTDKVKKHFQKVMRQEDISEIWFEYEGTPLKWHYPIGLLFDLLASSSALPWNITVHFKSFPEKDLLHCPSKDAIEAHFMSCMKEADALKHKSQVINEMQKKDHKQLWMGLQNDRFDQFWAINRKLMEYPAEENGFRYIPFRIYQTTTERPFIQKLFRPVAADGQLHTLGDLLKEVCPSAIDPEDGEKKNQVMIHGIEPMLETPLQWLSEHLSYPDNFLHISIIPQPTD
UniProt P21283, whole entry, looked up: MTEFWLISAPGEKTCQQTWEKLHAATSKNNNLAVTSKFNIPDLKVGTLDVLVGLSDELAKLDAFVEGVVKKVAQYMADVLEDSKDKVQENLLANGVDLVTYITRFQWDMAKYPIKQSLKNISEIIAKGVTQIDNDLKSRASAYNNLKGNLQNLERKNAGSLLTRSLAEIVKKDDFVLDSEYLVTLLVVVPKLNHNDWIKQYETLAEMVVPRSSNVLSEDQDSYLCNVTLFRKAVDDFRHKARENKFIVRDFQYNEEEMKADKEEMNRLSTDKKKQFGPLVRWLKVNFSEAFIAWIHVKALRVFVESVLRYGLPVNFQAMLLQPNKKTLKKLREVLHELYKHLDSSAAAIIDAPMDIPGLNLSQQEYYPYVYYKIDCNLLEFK
UniProt P56385: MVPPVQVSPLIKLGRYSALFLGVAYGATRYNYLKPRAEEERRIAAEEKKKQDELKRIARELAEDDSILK
UniProt Q9H1I8: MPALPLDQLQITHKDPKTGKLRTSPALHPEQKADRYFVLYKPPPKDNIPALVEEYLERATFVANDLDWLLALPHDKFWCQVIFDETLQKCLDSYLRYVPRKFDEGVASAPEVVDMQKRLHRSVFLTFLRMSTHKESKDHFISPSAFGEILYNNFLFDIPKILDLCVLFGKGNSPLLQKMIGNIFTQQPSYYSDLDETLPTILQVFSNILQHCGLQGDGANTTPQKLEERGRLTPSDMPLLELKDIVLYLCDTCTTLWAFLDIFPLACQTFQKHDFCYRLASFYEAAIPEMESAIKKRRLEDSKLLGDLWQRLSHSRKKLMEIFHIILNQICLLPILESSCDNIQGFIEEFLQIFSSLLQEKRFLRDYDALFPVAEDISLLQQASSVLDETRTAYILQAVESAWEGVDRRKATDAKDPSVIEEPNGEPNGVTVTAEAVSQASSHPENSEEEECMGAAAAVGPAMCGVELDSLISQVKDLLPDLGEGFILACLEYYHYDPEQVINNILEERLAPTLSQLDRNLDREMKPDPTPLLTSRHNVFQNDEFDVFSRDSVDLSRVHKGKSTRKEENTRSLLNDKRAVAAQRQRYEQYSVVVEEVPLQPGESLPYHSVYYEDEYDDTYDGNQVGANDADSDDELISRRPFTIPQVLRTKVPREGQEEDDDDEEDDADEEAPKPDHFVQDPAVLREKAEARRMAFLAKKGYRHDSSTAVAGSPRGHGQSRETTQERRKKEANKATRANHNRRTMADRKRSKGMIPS
UniProt Q9Y4P1: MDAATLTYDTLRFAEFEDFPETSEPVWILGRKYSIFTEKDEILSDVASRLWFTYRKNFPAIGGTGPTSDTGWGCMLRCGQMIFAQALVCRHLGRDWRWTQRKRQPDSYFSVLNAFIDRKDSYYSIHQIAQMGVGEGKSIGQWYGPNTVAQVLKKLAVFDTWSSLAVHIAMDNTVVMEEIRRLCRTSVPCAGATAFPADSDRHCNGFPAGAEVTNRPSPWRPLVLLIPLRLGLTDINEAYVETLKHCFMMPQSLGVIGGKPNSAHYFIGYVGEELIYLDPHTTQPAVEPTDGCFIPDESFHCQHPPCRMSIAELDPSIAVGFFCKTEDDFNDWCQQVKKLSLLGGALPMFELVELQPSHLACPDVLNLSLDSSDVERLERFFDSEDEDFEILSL
UniProt P54709, whole entry, looked up: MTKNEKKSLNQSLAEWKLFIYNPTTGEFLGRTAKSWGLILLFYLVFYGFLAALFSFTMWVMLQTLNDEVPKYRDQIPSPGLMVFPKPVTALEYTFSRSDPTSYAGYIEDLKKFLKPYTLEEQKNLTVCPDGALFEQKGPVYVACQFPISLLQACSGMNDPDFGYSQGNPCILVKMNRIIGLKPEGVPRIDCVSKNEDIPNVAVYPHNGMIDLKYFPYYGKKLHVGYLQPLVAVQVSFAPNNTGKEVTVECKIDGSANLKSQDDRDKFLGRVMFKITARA
UniProt Q7Z3C6: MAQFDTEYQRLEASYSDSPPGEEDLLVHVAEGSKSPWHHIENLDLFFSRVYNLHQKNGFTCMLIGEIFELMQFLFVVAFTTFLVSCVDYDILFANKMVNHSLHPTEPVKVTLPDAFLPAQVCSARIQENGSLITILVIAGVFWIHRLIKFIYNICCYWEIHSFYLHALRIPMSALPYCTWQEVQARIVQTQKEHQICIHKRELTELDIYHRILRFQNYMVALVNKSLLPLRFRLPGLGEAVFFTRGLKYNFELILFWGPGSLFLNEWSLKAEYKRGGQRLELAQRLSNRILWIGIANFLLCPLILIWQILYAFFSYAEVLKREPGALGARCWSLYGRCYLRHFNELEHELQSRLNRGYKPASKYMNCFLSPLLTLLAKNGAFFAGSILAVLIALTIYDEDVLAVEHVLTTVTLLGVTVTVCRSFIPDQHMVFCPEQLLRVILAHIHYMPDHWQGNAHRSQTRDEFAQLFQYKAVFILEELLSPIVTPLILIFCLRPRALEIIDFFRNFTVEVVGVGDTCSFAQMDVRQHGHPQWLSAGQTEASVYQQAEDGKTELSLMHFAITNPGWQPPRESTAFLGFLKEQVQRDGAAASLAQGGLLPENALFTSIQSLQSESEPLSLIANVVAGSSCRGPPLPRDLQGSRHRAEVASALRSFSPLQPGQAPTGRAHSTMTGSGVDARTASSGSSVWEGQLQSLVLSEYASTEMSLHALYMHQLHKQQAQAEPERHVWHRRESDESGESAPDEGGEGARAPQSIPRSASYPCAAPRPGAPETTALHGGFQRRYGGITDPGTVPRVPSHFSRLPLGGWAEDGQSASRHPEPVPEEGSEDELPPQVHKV
UniProt Q13733, whole entry, looked up: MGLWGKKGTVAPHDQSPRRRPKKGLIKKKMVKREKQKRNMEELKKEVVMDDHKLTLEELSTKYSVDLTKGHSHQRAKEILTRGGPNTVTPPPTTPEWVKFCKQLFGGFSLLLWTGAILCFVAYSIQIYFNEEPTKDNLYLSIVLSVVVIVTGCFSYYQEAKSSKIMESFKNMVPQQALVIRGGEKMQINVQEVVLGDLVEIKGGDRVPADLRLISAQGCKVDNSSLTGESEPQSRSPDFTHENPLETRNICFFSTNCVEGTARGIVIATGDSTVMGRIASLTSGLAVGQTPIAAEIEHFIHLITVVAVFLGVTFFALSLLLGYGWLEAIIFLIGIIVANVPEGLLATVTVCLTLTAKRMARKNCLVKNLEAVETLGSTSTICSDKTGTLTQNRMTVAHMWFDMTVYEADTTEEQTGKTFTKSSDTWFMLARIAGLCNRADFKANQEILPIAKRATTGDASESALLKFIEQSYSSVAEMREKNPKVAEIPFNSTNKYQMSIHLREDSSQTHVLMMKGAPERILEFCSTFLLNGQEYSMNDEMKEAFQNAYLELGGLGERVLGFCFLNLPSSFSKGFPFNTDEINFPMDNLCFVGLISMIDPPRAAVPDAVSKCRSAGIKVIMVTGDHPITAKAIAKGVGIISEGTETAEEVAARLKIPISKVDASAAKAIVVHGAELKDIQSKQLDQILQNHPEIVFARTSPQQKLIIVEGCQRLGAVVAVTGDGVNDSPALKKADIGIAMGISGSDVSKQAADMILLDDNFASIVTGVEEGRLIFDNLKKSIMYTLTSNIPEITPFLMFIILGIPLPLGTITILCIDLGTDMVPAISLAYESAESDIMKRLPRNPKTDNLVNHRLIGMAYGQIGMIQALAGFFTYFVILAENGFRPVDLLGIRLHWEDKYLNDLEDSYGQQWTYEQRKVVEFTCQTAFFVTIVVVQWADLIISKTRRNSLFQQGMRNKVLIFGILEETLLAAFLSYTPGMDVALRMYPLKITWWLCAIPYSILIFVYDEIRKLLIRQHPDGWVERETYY
UniProt Q9Y2Y0: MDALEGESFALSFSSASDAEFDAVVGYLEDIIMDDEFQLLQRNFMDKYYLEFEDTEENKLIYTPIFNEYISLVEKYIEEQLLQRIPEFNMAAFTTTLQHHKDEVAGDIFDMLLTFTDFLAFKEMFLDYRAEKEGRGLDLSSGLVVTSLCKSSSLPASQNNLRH
UniProt Q12797: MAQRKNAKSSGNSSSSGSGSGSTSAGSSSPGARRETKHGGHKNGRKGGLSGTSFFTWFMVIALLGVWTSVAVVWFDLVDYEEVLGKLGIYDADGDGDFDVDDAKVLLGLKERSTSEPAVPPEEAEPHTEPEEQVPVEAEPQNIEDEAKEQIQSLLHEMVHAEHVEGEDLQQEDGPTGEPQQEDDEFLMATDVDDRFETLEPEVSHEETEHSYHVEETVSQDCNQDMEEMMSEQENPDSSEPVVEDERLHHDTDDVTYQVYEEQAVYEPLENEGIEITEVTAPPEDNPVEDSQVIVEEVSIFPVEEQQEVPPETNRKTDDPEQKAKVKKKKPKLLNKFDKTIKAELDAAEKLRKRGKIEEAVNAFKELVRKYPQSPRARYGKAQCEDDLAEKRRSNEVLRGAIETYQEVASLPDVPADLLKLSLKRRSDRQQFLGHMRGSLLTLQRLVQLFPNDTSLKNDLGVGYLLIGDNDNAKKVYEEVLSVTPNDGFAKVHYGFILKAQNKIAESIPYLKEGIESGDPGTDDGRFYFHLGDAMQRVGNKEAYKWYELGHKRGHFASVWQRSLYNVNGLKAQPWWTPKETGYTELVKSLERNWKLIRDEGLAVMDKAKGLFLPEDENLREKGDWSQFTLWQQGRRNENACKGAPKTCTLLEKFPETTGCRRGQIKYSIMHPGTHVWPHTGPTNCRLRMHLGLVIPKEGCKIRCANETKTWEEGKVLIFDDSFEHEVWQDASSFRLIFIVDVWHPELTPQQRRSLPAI
UniProt O94817, whole entry, looked up: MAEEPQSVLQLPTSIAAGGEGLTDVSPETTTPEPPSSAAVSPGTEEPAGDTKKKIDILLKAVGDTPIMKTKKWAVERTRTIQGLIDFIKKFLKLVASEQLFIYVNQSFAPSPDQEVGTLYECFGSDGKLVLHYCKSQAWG
UniProt Q9H7F0: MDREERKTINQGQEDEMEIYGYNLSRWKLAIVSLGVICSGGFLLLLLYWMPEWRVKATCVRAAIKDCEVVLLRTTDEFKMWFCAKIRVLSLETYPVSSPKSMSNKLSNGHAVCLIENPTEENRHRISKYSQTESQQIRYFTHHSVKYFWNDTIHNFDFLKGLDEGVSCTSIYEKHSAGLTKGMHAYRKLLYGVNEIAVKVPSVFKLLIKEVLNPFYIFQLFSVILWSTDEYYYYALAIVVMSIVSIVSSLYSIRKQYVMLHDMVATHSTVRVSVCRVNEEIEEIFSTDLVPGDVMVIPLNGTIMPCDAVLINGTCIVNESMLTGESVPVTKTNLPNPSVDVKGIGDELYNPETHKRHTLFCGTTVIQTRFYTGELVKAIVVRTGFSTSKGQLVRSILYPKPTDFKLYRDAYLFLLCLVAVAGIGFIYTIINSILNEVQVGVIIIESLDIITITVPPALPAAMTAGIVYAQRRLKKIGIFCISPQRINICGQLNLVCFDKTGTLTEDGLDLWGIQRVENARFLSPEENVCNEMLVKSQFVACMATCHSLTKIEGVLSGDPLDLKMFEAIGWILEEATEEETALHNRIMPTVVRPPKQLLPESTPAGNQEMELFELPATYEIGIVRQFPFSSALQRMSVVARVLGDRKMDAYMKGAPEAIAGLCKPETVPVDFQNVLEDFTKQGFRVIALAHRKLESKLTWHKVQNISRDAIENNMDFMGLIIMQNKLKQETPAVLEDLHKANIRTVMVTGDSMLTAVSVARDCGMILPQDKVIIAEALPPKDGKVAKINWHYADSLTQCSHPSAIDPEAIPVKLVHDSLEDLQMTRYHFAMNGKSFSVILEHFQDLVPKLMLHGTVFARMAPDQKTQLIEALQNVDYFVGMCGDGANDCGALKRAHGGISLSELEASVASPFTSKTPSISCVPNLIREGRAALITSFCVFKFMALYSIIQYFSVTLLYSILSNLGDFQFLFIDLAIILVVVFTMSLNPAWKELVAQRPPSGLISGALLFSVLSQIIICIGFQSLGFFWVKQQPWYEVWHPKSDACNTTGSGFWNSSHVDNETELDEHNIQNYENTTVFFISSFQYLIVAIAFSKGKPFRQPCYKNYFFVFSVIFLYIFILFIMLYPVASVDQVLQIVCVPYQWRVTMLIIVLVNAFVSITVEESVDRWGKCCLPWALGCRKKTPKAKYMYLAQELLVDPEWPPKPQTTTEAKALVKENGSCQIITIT

How the values were obtained:
Assay in all cases: log2 fold change, soluble protein after heating vs DMSO (PISA); higher = thermal stabilisation; K562 cells, 10 uM, 30 min; active = over 0.2 and 3.5 SD of the protein, either way, in both replicates (recomputed)
[1] = compound: CS(=O)(=O)c1ccc(-c2cnc(N)c(C(=O)Nc3ccccc3)n2)cc1
How it was run: (§1)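 Soluble protein was defined as the supernatant after 21,000xg for 90 min. It came from K562 cells at 2×10^6 cells/mL given 10 μM compound for 30 min, heated in aliquots for 3 min across 48°C-58°C, pooled, and extracted in PBS with 0.5% NP-40 at 4°C, and was quantified by TMTpro 16plex LC-MS/MS with equalised channel sums. Thermal stability against control samples, from duplicates, is reported as log2 fold change.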

crizotinib = compound: C[C@@H](Oc1cc(-c2cnn(C3CCNCC3)c2)cnc1N)c1c(Cl)ccc(F)c1Cl [crizotinib]
How it was run: as §1

[2] = compound: C[C@@H]1COCCN1C2=NC(=NC(=C2)C3(CC3)S(=O)(=O)C)C4=C5C=CNC5=CC=C4
How it was run: as §1

[3] = compound: C[C@H](C1=CC=C(C=C1)C(=O)NC2=C3C=CNC3=NC=C2)N
How it was run: as §1

duvelisib = compound: C[C@H](Nc1ncnc2nc[nH]c12)c1cc2cccc(Cl)c2c(=O)n1-c1ccccc1 [duvelisib]
How it was run: as §1

gandotinib = compound: Cc1cc(Nc2cc(CN3CCOCC3)c3nc(C)c(Cc4ccc(Cl)cc4F)n3n2)n[nH]1 [gandotinib]
How it was run: as §1

tozasertib = compound: Cc1cc(Nc2cc(N3CCN(C)CC3)nc(Sc3ccc(NC(=O)C4CC4)cc3)n2)n[nH]1 [tozasertib]
How it was run: as §1

[4] = compound: Cc1cc(SCc2sc(-c3ccc(C(F)(F)F)cc3)nc2C)ccc1OCC(=O)O
How it was run: as §1

doramapimod = compound: Cc1ccc(-n2nc(C(C)(C)C)cc2NC(=O)Nc2ccc(OCCN3CCOCC3)c3ccccc23)cc1 [doramapimod]
How it was run: as §1

ispinesib = compound: Cc1ccc(C(=O)N(CCCN)[C@@H](c2nc3cc(Cl)ccc3c(=O)n2Cc2ccccc2)C(C)C)cc1 [ispinesib]
How it was run: as §1

bafetinib = compound: Cc1ccc(NC(=O)c2ccc(CN3CC[C@H](N(C)C)C3)c(C(F)(F)F)c2)cc1Nc1nccc(-c2cncnc2)n1 [bafetinib]
How it was run: as §1

[5] = compound: Cc1cccc(CC(=O)N2CCc3c2ccc(-c2cn(C)c4ncnc(N)c24)c3F)n1
How it was run: as §1

nilotinib = compound: Cc1cn(-c2cc(NC(=O)c3ccc(C)c(Nc4nccc(-c5cccnc5)n4)c3)cc(C(F)(F)F)c2)cn1 [nilotinib]
How it was run: as §1

[6] = compound: Cc1nc(Nc2n[nH]c3c2CN(C(=O)N[C@H](CN(C)C)c2ccccc2)C3(C)C)c2sccc2n1
How it was run: as §1

dasatinib = compound: Cc1nc(Nc2ncc(C(=O)Nc3c(C)cccc3Cl)s2)cc(N2CCN(CCO)CC2)n1 [dasatinib]
How it was run: as §1

[7] = compound: Cc1ncc(-c2ccnc(Nc3ccc(S(C)(=O)=O)cc3)n2)n1C(C)C
How it was run: as §1

[8] = compound: Cn1cc(-c2ccc3c(c2)CCN3C(=O)Cc2cccc(C(F)(F)F)c2)c2c(N)ncnc21
How it was run: as §1

[9] = compound: Cn1cc(-c2ccc3nnc(C(F)(F)c4ccc5ncccc5c4)n3n2)cn1
How it was run: as §1

tipifarnib = compound: Cn1cncc1[C@@](N)(c1ccc(Cl)cc1)c1ccc2c(c1)c(-c1cccc(Cl)c1)cc(=O)n2C [tipifarnib]
How it was run: as §1

mubritinib = compound: FC(F)(F)c1ccc(/C=C/c2nc(COc3ccc(CCCCn4ccnn4)cc3)co2)cc1 [mubritinib]
How it was run: as §1

| Target | log2 fold change [1] | log2 fold change (crizotinib) | log2 fold change [2] | log2 fold change [3] | log2 fold change (duvelisib) | log2 fold change (gandotinib) | log2 fold change (tozasertib) | log2 fold change [4] | log2 fold change (doramapimod) | log2 fold change (ispinesib) | log2 fold change (bafetinib) | log2 fold change [5] | log2 fold change (nilotinib) | log2 fold change [6] | log2 fold change (dasatinib) | log2 fold change [7] | log2 fold change [8] | log2 fold change [9] | log2 fold change (tipifarnib) | log2 fold change (mubritinib) |
| --- | --- | --- | --- | --- | --- | --- | --- | --- | --- | --- | --- | --- | --- | --- | --- | --- | --- | --- | --- | --- |
| ATG5 (UniProt Q9H1Y0) | inactive: 0.05 | inactive: -0.042 | inactive: 0.022 | inactive: -0.031 | inactive: 0.073 | inactive: -0.008 | inactive: 0.059 | inactive: -0.032 | inactive: -0.025 | inactive: 0.055 | inactive: -0.014 | inactive: 0.014 | inactive: 0.069 | inactive: -0.021 | inactive: 0.021 | inactive: 0.038 | inactive: 0.031 | inactive: -0.005 | inactive: -0.038 | inactive: 0.01 |
| ATP6V1C1 (UniProt P21283) | inactive: -0.05 | inactive: 0.1 | inactive: -0.05 | inactive: 0.14 | – | inactive: 0.033 | – | inactive: 0.041 | inactive: 0.015 | inactive: 0.122 | inactive: -0.083 | inactive: 0.063 | inactive: -0.137 | inactive: -0.191 | inactive: -0.045 | inactive: 0.115 | inactive: -0.083 | inactive: -0.105 | inactive: 0.03 | inactive: 0.083 |
| ATP5ME (UniProt P56385) | inactive: -0.016 | inactive: 0.101 | inactive: 0.102 | inactive: -0.046 | – | inactive: 0.001 | – | inactive: -0.016 | inactive: 0.033 | inactive: 0.078 | inactive: -0.071 | inactive: -0.051 | inactive: 0.022 | inactive: 0.008 | inactive: 0.084 | inactive: -0.046 | inactive: 0.001 | inactive: 0.103 | inactive: -0.031 | inactive: 0.023 |
| ASCC2 (UniProt Q9H1I8) | inactive: -0.011 | inactive: -0.158 | inactive: -0.024 | inactive: 0.253 | inactive: 0.033 | – | – | inactive: 0.067 | inactive: 0.136 | inactive: -0.142 | – | – | – | – | inactive: -0.209 | – | inactive: -0.285 | inactive: 0.015 | – | inactive: -0.045 |
| ATG4B isoform 2 (UniProt Q9Y4P1) | inactive: 0.078 | inactive: -0.361 | inactive: 0.056 | inactive: -0.004 | – | inactive: -0.12 | – | inactive: 0.184 | inactive: 0.003 | inactive: -0.277 | inactive: 0.004 | inactive: 0.073 | inactive: -0.061 | inactive: -0.035 | inactive: -0.242 | inactive: -0.041 | inactive: 0.022 | inactive: 0.13 | inactive: -0.402 | inactive: 0.073 |
| ATP1B3 (UniProt P54709) | inactive: 0.053 | inactive: 0.111 | inactive: 0.027 | inactive: -0.152 | – | inactive: -0.013 | – | inactive: -0.04 | inactive: -0.042 | inactive: 0.165 | inactive: 0 | inactive: -0.039 | inactive: 0.06 | inactive: -0.003 | inactive: 0.027 | inactive: 0.021 | inactive: 0 | inactive: -0.02 | inactive: 0.065 | inactive: 0.043 |
| ATP11A (UniProt P98196) | inactive: 0.017 | inactive: 0.042 | inactive: 0.032 | inactive: -0.103 | – | inactive: 0.027 | – | inactive: -0.055 | inactive: 0.018 | inactive: 0.092 | inactive: -0.028 | inactive: -0.002 | inactive: 0.113 | inactive: -0.012 | inactive: -0.01 | inactive: 0.029 | inactive: -0.006 | inactive: 0.01 | inactive: 0.051 | inactive: 0.056 |
| ATG9A (UniProt Q7Z3C6) | inactive: 0.074 | inactive: -0.11 | inactive: 0.036 | inactive: 0.036 | – | inactive: -0.062 | – | inactive: 0.069 | inactive: -0.016 | active: -0.239 | inactive: -0.048 | inactive: -0.013 | inactive: -0.04 | inactive: -0.108 | inactive: -0.046 | inactive: -0.014 | inactive: 0.06 | inactive: -0.022 | inactive: 0.168 | inactive: 0.042 |
| ATP1A4 (UniProt Q13733) | inactive: -0.013 | inactive: 0.091 | inactive: -0.067 | inactive: -0.066 | – | inactive: -0.026 | – | inactive: 0.038 | inactive: -0.086 | inactive: 0.032 | inactive: 0.038 | inactive: 0.036 | inactive: 0.058 | inactive: -0.041 | inactive: 0.076 | inactive: 0.033 | inactive: 0.028 | inactive: -0.041 | inactive: -0.039 | inactive: 0.001 |
| ARL2BP (UniProt Q9Y2Y0) | inactive: 0.077 | inactive: -0.128 | inactive: -0.017 | inactive: -0.038 | – | inactive: -0.166 | – | inactive: 0.044 | inactive: 0.101 | inactive: -0.042 | inactive: 0.001 | inactive: 0 | inactive: -0.078 | inactive: -0.086 | inactive: -0.069 | inactive: -0.103 | inactive: 0.125 | inactive: 0.011 | inactive: -0.091 | inactive: -0.027 |
| ASPH (UniProt Q12797) | inactive: -0.026 | inactive: 0 | inactive: -0.135 | inactive: 0.243 | inactive: -0.064 | inactive: 0.088 | inactive: 0.001 | inactive: 0.085 | inactive: 0.03 | inactive: -0.059 | inactive: 0.035 | inactive: -0.009 | inactive: 0.018 | inactive: 0.047 | inactive: 0.103 | inactive: -0.015 | inactive: -0.086 | inactive: -0.046 | inactive: 0.079 | inactive: -0.1 |
| ATG12 (UniProt O94817) | inactive: 0.034 | inactive: -0.114 | inactive: 0.062 | inactive: -0.045 | inactive: 0.035 | inactive: -0.201 | inactive: 0.025 | inactive: -0.014 | inactive: 0.003 | – | inactive: -0.017 | inactive: 0.195 | inactive: -0.008 | inactive: 0.034 | inactive: 0.001 | inactive: -0.01 | inactive: 0.05 | – | inactive: -0.038 | inactive: 0.069 |
| ATP13A3 (UniProt Q9H7F0) | inactive: 0.076 | inactive: -0.251 | inactive: -0.037 | inactive: 0.056 | – | inactive: 0 | – | inactive: -0.043 | inactive: 0.045 | inactive: -0.251 | inactive: -0.067 | inactive: 0.116 | inactive: -0.015 | inactive: -0.06 | inactive: 0.008 | inactive: 0.024 | inactive: -0.099 | inactive: 0.002 | inactive: 0.098 | inactive: -0.049 |

Record cards, as listed above. Values in the order: log2 fold change [1]	log2 fold change (crizotinib)	log2 fold change [2]	log2 fold change [3]	log2 fold change (duvelisib)	log2 fold change (gandotinib)	log2 fold change (tozasertib)	log2 fold change [4]	log2 fold change (doramapimod)	log2 fold change (ispinesib)	log2 fold change (bafetinib)	log2 fold change [5]	log2 fold change (nilotinib)	log2 fold change [6]	log2 fold change (dasatinib)	log2 fold change [7]	log2 fold change [8]	log2 fold change [9]	log2 fold change (tipifarnib)	log2 fold change (mubritinib)
ASCC2 (UniProt Q9H1I8) reads inactive: -0.011	inactive: -0.158	inactive: -0.024	inactive: 0.253	inactive: 0.033	–	–	inactive: 0.067	inactive: 0.136	inactive: -0.142	–	–	–	–	inactive: -0.209	–	inactive: -0.285	inactive: 0.015	–	inactive: -0.045
ATP6V1C1 (UniProt P21283) reads inactive: -0.05	inactive: 0.1	inactive: -0.05	inactive: 0.14	–	inactive: 0.033	–	inactive: 0.041	inactive: 0.015	inactive: 0.122	inactive: -0.083	inactive: 0.063	inactive: -0.137	inactive: -0.191	inactive: -0.045	inactive: 0.115	inactive: -0.083	inactive: -0.105	inactive: 0.03	inactive: 0.083
